In paper PMC7585092:
Results are given in words; binding and its absence hold for the method and conditions named. In cells and extracts the contact can be indirect. Some entries that bind do so weakly or less than the wild type. Sequences can lack the tags named with a protein.

By UniProt entry, the sequences of proteins in these tests, tags left out.
UniProt Q5S007: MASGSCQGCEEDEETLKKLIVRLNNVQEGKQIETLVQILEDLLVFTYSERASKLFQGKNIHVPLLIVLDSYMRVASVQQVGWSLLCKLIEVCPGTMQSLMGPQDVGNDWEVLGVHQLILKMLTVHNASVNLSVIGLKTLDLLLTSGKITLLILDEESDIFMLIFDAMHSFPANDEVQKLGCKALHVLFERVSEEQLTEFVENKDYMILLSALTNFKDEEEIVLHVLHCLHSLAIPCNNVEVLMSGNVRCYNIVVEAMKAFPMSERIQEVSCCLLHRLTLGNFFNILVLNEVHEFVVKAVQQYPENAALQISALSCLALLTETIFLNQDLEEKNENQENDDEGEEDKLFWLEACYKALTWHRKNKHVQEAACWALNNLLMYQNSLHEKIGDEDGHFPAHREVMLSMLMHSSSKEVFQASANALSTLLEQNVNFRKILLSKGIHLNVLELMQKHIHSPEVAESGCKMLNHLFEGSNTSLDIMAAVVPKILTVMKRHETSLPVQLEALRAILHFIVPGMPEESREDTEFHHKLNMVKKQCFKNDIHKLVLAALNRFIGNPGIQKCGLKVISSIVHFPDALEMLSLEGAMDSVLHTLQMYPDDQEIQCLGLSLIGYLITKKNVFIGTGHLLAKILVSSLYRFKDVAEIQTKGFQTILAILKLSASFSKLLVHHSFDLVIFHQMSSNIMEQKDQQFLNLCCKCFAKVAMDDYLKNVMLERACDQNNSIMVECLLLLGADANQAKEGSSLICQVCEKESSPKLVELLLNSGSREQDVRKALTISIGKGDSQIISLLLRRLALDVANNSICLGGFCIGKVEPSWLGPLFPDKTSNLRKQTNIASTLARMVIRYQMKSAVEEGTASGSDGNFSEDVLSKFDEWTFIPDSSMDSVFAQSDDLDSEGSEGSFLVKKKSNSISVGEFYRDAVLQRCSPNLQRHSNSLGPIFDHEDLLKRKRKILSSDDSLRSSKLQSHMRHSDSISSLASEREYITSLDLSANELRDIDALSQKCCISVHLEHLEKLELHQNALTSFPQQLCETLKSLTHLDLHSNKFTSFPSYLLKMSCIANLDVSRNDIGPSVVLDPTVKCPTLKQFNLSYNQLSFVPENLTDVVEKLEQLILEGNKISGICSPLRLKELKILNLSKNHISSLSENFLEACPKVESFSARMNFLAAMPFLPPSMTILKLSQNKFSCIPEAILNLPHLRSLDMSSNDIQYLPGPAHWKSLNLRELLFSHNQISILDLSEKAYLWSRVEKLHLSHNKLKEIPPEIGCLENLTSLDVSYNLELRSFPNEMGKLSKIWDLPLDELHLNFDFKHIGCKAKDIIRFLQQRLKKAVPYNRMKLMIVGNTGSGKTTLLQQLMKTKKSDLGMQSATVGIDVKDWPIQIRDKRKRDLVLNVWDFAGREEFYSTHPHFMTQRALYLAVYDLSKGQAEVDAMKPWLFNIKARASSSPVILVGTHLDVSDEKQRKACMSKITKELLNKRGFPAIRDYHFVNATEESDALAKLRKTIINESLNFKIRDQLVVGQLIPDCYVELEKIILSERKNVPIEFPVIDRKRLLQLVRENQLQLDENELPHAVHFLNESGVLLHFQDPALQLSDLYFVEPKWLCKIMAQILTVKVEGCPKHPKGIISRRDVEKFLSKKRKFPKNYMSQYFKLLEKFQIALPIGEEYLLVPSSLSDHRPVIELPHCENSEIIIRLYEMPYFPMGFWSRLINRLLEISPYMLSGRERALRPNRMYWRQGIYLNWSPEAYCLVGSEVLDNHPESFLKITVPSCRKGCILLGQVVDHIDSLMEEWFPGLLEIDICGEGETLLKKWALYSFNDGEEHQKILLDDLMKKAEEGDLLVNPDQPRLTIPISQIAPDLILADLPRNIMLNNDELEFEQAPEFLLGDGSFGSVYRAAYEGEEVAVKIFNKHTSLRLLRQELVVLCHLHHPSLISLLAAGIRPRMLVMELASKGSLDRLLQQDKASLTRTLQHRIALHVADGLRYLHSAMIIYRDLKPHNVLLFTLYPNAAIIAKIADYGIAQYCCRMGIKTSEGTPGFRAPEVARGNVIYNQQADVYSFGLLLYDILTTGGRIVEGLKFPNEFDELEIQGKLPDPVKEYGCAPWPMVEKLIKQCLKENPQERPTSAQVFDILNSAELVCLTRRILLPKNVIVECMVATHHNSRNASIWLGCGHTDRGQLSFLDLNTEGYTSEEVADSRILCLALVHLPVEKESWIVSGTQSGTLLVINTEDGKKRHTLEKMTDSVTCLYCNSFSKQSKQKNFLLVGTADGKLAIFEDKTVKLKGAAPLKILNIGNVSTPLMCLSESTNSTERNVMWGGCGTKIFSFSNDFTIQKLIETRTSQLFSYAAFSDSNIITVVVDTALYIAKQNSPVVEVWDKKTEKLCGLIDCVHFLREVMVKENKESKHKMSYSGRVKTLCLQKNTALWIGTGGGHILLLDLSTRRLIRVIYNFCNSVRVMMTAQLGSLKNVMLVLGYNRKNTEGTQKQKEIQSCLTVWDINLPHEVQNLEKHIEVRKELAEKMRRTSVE

Molecular target: GFP-tagged Leucine-rich repeat kinase 2 (LRRK2) (human) (UniProt Q5S007)
Experiment: co-IP; HEK293T cells co-transfected with LRRK2-GFP and PRDX2-flag; lysed in M-PER buffer 24h after transfection; lysates incubated with anti GFP conjugated beads O/N at 4 °C; washed 5 times with NP40 buffer (50mM Tris pH7.4, 150mM NaCl and 1% NP40); western blot with anti-flag

- binding: binds
B1: FLAG-tagged Peroxiredoxin 2 (PRDX2) (protein, UniProt P32119 1-198)
chain: MASGNARIGKPAPDFKATAVVDGAFKEVKLSDYKGKYVVLFFYPLDFTFVCPTEIIAFSNRAEDFRKLGCEVLGVSVDSQFTHLAWINTPRKEGGLGPLNIPLLADVTRRLSEDYGVLKTDEGIAYRGLFIIDGKGVLRQITVNDLPVGRSVDEALRLVQAFQYTDEHGEVCPAGWKPGSDTIKPNVDDSKEYFSKHN
